What is called AC50 is the concentration at which the activity in the assay is half-maximal.

This is one part of the list. These are further read-outs of the screen, such as a control signal, another cell line or another target. No call is given for them. The list favours compounds with an active or inconclusive main result. Potencies come from curve fits of mixed quality, noted in brackets.

The test in a line: IkB Signaling. The conditions noted are these: ABC-DLBCL IkBa-CBG/CBR dual luciferase ratio (green luciferase fused to IkBa over red control in OCI-Ly3 lymphoma cells), 4 h; measured here: control luc red channel unless noted. Summed up:
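Luminescence ratio of IκBα-fused green versus native red beetle luciferase in OCI-Ly3 cells, 4 h post-doxycycline with compound; red signal alone, scaled from basal (0%) to zero light (-100%), flagged nonspecific or cytotoxic effects.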
For `Cc1cccc(N2CCN(S(=O)(=O)c3ccc4[nH]c5c(c4c3)CCCCC5)CC2)c1C`, the AC50 is 10 µM [falling, partial curve]. Next, `O=C(c1cc(-c2ccco2)on1)N1CCN(C(c2ccccc2)c2ccccc2)CC1`: 12.6 µM [falling, partial curve]; `CCN(CC)C(=O)Cn1nnc2sc(-c3ccccc3)cc2c1=O`: 39.8 µM [falling, single point].

Consider `Cc1ccc(CN2CCSc3ccc(C(=O)NCC(C)c4ccccc4)cc32)cc1` (configuration not stated), for which the AC50 was 10 µM [falling, partial curve]. As for `CC(C)(C)N1C(=O)Cc2c1nc(N)c1c(N)nc(N3CCCCC3CO)c(C#N)c21` (configuration not stated), the figure is 15.8 µM [rising, partial curve] [measured here: IkB-luc green channel]; as for `Cc1ccc(NC(=O)C(C)n2nnc3sc4c(c3c2=O)CCCC4)cc1Cl` (configuration not stated), 12.6 µM [falling, partial curve]. With `Oc1ccc(NCc2ccccc2OCc2ccccc2F)cc1`, the AC50 was 15.8 µM [falling, partial curve]. Turning to `CC(=O)c1ccc(NC(=O)CCCSc2nc(-c3ccco3)cc(C(F)(F)F)n2)cc1`, the AC50 is 25.1 µM [falling, single point].

Regarding `CCOC(=O)c1cccc(Nc2cc(-c3ccccc3)ncn2)c1`, the AC50 is 20 µM [falling, single point]. As for `Cc1cccc(N(CC(=O)NCc2ccccc2)C(=O)Cn2nnc(-c3ccc(C)o3)n2)c1`, the figure is 31.6 µM [falling, partial curve]; as for `CCOC(=O)c1c(C)[nH]c(CCC(=O)NCc2ccccc2Cl)c1C`, 25.1 µM [falling, single point].

Regarding `CC(=O)c1ccc(Nc2cc(C)nc3nc(Cc4ccc(Cl)cc4)nn23)cc1`, the AC50 was 31.6 µM [falling, partial curve, poor fit].

In the case of `CCc1ccc2oc(C(=O)Nc3cc(C)ccc3C)cc(=O)c2c1`, the concentration at half-maximal activity (AC50) is 0.398 µM [falling, partial curve]. Next, `CC(C)c1nn2c(=O)cc(COC(=O)c3ccccc3NC(=O)C3CCCCC3)nc2s1`: 39.8 µM [falling, single point]. For the compound `CC1Cc2ccccc2N1C(=O)CSc1nnc(-c2ccccc2Cl)o1` (configuration not stated), the AC50 is 3.16 µM [falling, single point]. Next, `CC1CCCCN1S(=O)(=O)c1ccc(C(=O)Nc2nnc(-c3cccs3)o2)cc1` (configuration not stated): 20 µM [falling, partial curve]. As for `Nc1nc(-c2nc3ccccc3[nH]2)cs1`, the figure is 12.6 µM [falling, partial curve]; as for `Cc1ccc(NC(=O)Cn2ccn(-c3ccccc3)c(=O)c2=O)cc1`, 20 µM [falling, single point]. As for `CCOc1ccc(C2NC(=O)c3c(COC)cc(C)nc3N2Cc2ccccc2)cc1OC` (configuration not stated), the figure is 0.316 µM [rising, full curve, poor fit]. On to `Cc1ccc(C)c(N2CCN(C(=O)c3ccc4c(c3)N(Cc3ccc(F)cc3)C(=O)c3ccccc3S4=O)CC2)c1` (configuration not stated), for which the AC50 was 3.98 µM [falling, partial curve].

For `CC1CCC(Nc2nc3c(-c4cccc(C(F)(F)F)c4)nnn3c3ccccc23)CC1` (configuration not stated), the AC50 is 20 µM [falling, partial curve]. Next, `COc1cc(OC)c(NC(=O)CCc2c(C)nc3cc(-c4ccccc4OC)nn3c2C)cc1Cl`: 1 µM [falling, full curve]; `COCCOC(=O)c1cc(C(=O)c2cc(F)ccc2O)coc1=N`: 10 µM [falling, partial curve]; `O=C(Nc1cccc(-c2cn3ccsc3n2)c1)c1ccccc1`: 20 µM [falling, single point]. Next, `COc1ccccc1-c1noc(CCC(=O)Nc2ccc(C)cc2C)n1`: 0.631 µM [falling, full curve]. As for `Cc1cccc(N2CCn3c2nc2c3c(=O)n(CCc3ccccc3)c(=O)n2C)c1`, the figure is 20 µM [falling, partial curve]; as for `N#CC1=C(N)N(c2cccc(Cl)c2)C2=C(C(=O)CCC2)C1c1cc(CN2CCOCC2)cs1` (configuration not stated), 39.8 µM [rising, partial curve, poor fit] [measured here: IkB-luc green channel]. Regarding `Cc1cccc(N2C(=O)CS(=O)(=O)C23C(=O)N(Cc2c(F)cccc2Cl)c2ccccc23)c1` (configuration not stated), the concentration at half-maximal activity (AC50) was 15.8 µM [falling, partial curve]. Next, `CSc1cccc(NC(=O)CN2CCN(Cc3ccccc3C)S2(=O)=O)c1`: 39.8 µM [falling, single point]; `Cc1cc(N)c(-n2cc3c(c2-c2ccc(Br)cc2)c(=O)n(C)c(=O)n3C)cc1C`: 15.8 µM [falling, partial curve]. As for `C=CCN(CC=C)S(=O)(=O)c1ccc2nc(NC(=O)C(C)C)sc2c1`, the figure is 12.6 µM [falling, partial curve]; as for `O=C(O)CCCNc1cc(N2CCN(C3CCCCC3)CC2)c2noc3c2c1C(=O)c1ccccc1-3`, 20 µM [falling, partial curve]; as for `O=C(CSc1ncn[nH]1)Nc1nc(-c2ccccc2)ns1`, 31.6 µM [falling, single point]. As for `Cc1ccc(-c2cc(-c3cccc(F)c3)n[nH]2)c(O)c1`, the AC50 was 25.1 µM [falling, partial curve]. Take `CCOC(=O)CC(=O)CSCC(=O)Nc1ccc(C)cc1`: the concentration at half-maximal activity (AC50) was 31.6 µM [falling, single point]. Next, `C=Cc1ccc(Cn2c(C)c(CNCCc3ccccc3C)c(C(=O)O)c2C)cc1`: 25.1 µM [falling, single point]; `O=C(COc1ccc(Cl)cc1)Nc1ccc(C(=O)OCc2cc(=O)n3ccsc3n2)cc1`: 12.6 µM [falling, partial curve]; `FC(F)(F)Oc1ccc2c(c1)NC(c1ccncc1)=NC(c1cccs1)=N2`: 39.8 µM [falling, single point]. As for `Cc1ccc(NC(=O)CCSc2nc(-c3ccco3)cc(C(F)(F)F)n2)cc1F`, the figure is 12.6 µM [falling, partial curve]; as for `O=C(Nc1nc(-c2ccccc2)cs1)C1CCCCN1S(=O)(=O)c1ccccc1` (configuration not stated), 15.8 µM [falling, partial curve]; as for `C=CCc1cccc2cc(C(=O)Nc3ccc(F)cc3)c(=O)oc12`, 15.8 µM [falling, partial curve]. Next, `COc1ccc2oc(=O)c(C(=O)Nc3ccc(C(=O)O)cc3)cc2c1`: 0.794 µM [falling, full curve]. In the case of `COc1ccc(OCC(=O)Nc2nnc3n2CCS3)cc1`, the AC50 was 0.1 µM [falling, full curve, poor fit]. As for `O=C(Nc1ccc(Oc2ccccc2)cc1)c1ccco1`, the figure is 12.6 µM [falling, single point]. `CCOC(=O)N1CCN(Cc2nc3cc(NC(=O)c4ccc(OC)cc4)ccc3n2C(C)C)CC1`: the AC50 is 15.8 µM [falling, single point]. Next, `Nc1nonc1-c1nc2ccccc2n1Cc1cccc(Cl)c1`: 1 µM [rising, full curve, poor fit]; `CC(C)c1ccc(NC(=O)c2ccc(F)c(S(=O)(=O)N3CCc4ccccc4C3)c2)cc1`: 10 µM [falling, partial curve].

`Cc1ccc(CN(C(=O)c2ccccc2F)c2ccccn2)o1`: the AC50 is 25.1 µM [falling, single point].

As for `O=C(c1cccn2c(=O)c3cc(Cl)ccc3nc12)N1CCN(c2ccccc2F)CC1`, the AC50 was 25.1 µM [falling, single point]. In the case of `COc1ccc(Cl)cc1NC(=O)Cn1cc(C(=O)c2ccc(C)cc2)c(=O)c2ccc(C)nc21`, the half-maximal activity concentration (AC50) was 7.94 µM [falling, partial curve]. As for `CCOc1ccc(C(=O)Nc2cccc(C(=O)OCc3cc(=O)n4nc(C5CC5)sc4n3)c2)cc1`, the figure is 0.126 µM [falling, full curve]. Next, `CCOC(=O)c1ccccc1NC(=O)CSc1nc(=O)[nH]c2c1CCC2`: 12.6 µM [falling, single point]. Consider `COc1ccc(CCNC(=O)c2c(O)nc3ccccn3c2=O)cc1`, for which the AC50 was 39.8 µM [falling, single point]. Next, `Cc1cc(NC(=O)C2CCN(S(=O)(=O)c3cccc4nsnc34)CC2)ccc1Br`: 2 µM [falling, partial curve]. Next, `CCN=c1sc(C(=O)NCCc2ccccc2)cc(=O)n1CC`: 25.1 µM [rising, partial curve] [measured here: IkB-luc green channel]; `Cc1cccc(C(=O)N2c3nc(-c4ccco4)nn3C3(CCCCC3)[C@@H]3CCCC[C@@H]32)c1`: 12.6 µM [falling, partial curve]; `Cc1cccc(-n2ncc3c(N4CCCC(C)C4)ncnc32)c1` (configuration not stated): 15.8 µM [falling, partial curve, poor fit]. Next, `C#CCOc1ccc(C2CC(=O)Nc3c2c(C)nn3-c2nc(C)cc(C)n2)cc1` (configuration not stated): 31.6 µM [falling, single point]. Take `O=c1ccc(-c2ccccc2)nn1Cc1ccc(F)cc1Cl`: the concentration at half-maximal activity (AC50) is 2.51 µM [falling, partial curve].

On to `Cc1ccc(S(=O)(=O)c2c(C)nn(C(C)(C)C)c2OC(=O)c2ccco2)cc1`, for which the AC50 is 10 µM [falling, partial curve].

On to `CCc1[nH]nc2c1C1(C(=O)N(Cc3ccccc3)c3ccccc31)C(C#N)=C(N)O2` (configuration not stated), for which the AC50 was 15.8 µM [falling, partial curve]. `CCCN1CCN(c2ncnc3sc(C(=O)Nc4c(C)cc(C)cc4C)c(C)c23)CC1`: the AC50 is 0.316 µM [falling, full curve, poor fit].

The values above are taken from PubChem BioAssay AID445 (National Center for Advancing Translational Sciences (NCATS), 2006).
